The values below come from the supplement of paper PMC4604168 (melanoma cell lines).

Each structure is given as a SMILES string. This is one part of the list. Repeats are few or missing, and single values can be far off.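 Imaging used 1,536-well plates; nuclei positive for cleaved PARP by antibody were divided by total DNA-stained nuclei to yield the apoptosis fraction. Doses for screening kept most cells viable, and cell lines differ markedly in resting and induced cleaved-PARP levels.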

The assay deals with COLO829. Kind of assay: cleaved PARP positive nuclei fraction relative to DMSO control; melanoma cells; higher = more apoptosis. The conditions noted are these: library dose: low library concentration; 72 h.
Regarding `C[As](C)SC[C@H](NC(=O)CC[C@H](N)C(=O)O)C(=O)NCC(=O)O` [Darinaparsin] + c1cc(-c2cnn3cc(-c4ccc(OCCN5CCCCC5)cc4)cnc23)ccn1 [Dorsomorphin] (first compound 0.4 µM, partner dose 0.4 µM), the “cleaved PARP positive nuclei fraction” value came out at 114%. In the case of `Cc1nc(Nc2ncc(C(=O)Nc3c(C)cccc3Cl)s2)cc(N2CCN(CCO)CC2)n1` [dasatanib] + Cc1cc(SCc2sc(-c3ccc(C(F)(F)F)c(F)c3)nc2C)ccc1OCC(=O)O [GW0742] (first compound 0.004 µM, partner dose 2 µM) it was 101%; in that of `C/C(O)=C(\C#N)C(=O)Nc1cc(Br)ccc1Br` + Oc1nc(-c2ccc(C(F)(F)F)cc2)nc2c1CSCC2 [XAV939] (first compound 2 µM, partner dose 2 µM), 71.3%. Turning to `O=C(Nc1cccc(Cl)c1)Nc1ncc(CCNc2ncnc3ccsc23)s1` + C/C(O)=C(\C#N)C(=O)Nc1cc(Br)ccc1Br [LFM-A13] (first compound 0.0008 µM, partner dose 2 µM), the “cleaved PARP positive nuclei fraction” value amounted to 161%. With `Cc1ccc(NC(=O)c2cccc(N(C)C)c2)cc1NC(=O)c1ccc(O)cc1` + O=C(Oc1ccc([N+](=O)[O-])cc1)N1CCC(C(O)(c2ccc3c(c2)OCO3)c2ccc3c(c2)OCO3)CC1 [JZL184] (first compound 2 µM, partner dose 1 µM), the “cleaved PARP positive nuclei fraction” value stood at 83.8%.

As for `O=C(Oc1ccc([N+](=O)[O-])cc1)N1CCC(C(O)(c2ccc3c(c2)OCO3)c2ccc3c(c2)OCO3)CC1` + CC(C)CCN1c2nc(Nc3cc(F)c(O)c(F)c3)ncc2N(C)C(=O)C1C [BID1870] (first compound 1 µM, partner dose 0.2 µM), the “cleaved PARP positive nuclei fraction” value came to 44.8%.
